# The campaign covered roughly 31,000 sequences. About 1,400 (4.5%) were called active.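 How the source made its calls: active means median seed-adjusted z-score above 1 or below -1; inactive means the rest.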 Some of the results follow.
# Experiment: Novel Modifiers of Survival Motor Neuron (SMN) Protein: Gene Identification via Genome-wide siRNA Screen;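 further: luminescence tracks full-length SMN protein made from the SMN2 reporter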
# Conditions: HEK293T SMN2-luciferase reporter, siRNA knockdown, 72 h; actives lie on both sides
# How it was run: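 Steps: spot 1 pmol siRNA, add Lipofectamine RNAiMax in serum-free DMEM, seed HEK293T SMN2–luciferase reporter cells; incubate 72 h at 37 °C; add ONE-Glo; normalize luminescence to control siRNA, log10, MAD. Candidates: |MAD| > 1.0.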
row,Sequence,median seed-adjusted z-score
1,CCACAGAGGCUAUGCUAAATT against ACE,inactive: 0.0874
2,GCAAAACGGAGGAUUGAGATT against EIF5B,active: 1.68
3,CAAACUCUCUCUGGACAAATT against STOML2,inactive: -0.264
4,GCGUACACCUACAACAACATT against IGFALS,inactive: 0.0888
5,GAUGGAUCCAUGUAAUACATT against NCOA1,inactive: 0.537
6,GGACAUGCUUUCUCAACUATT against ZNF641,inactive: 0.233
7,GGCUACAAUUUAAGACGAUTT against TNR,inactive: 0.498
8,AGUUUGAGAUGAUCGAUGATT against MAPK8IP2,inactive: 0.284
9,CUACAAAGCCCACUACUUUTT against S1PR2,inactive: -0.964
10,GGAUCGCCCAUCAUUCUGATT against PLXNA2,inactive: 0.308
11,CAACAAAGAUAGCAUGCUATT against PCDHGB7,inactive: -0.0065
12,CCAACUACUUGUCAACAGATT against CHDH,inactive: 0.0241
13,CACCAAGCCUGGUGGAUGATT against HTRA3,inactive: 0.291
14,GGACUUCUUUGUGCGCCUATT against ABHD8,inactive: -0.48
15,CAGCAAUGCUGAUCCGGAATT against ITGA8,inactive: -0.215
16,GGCCGUCAGUAAUACAUCUTT against ZBTB33,inactive: 0.164
17,GAGCCUGGAUGUGAAUGGATT against FBXO44,inactive: -0.45
18,CCGGGAAAGUUUGACUGCATT against OAZ3,inactive: 0.046
19,AAGUCAACAUAGCCCGAAATT against RDBP,inactive: 0.975
20,CAACAGACACUGUUAUAAATT against SMPDL3A,inactive: 0.49
21,GGAGCGAGCUGGUGCAUAATT against SH3BP5,inactive: -0.707
22,GGUUCGGACAUCACAAGUATT against ZHX2,inactive: 0.0708

row,Sequence,median seed-adjusted z-score
1,GGAAUUGUGGUGUUAGUAATT against POLN,inactive: -0.129
2,GGAAAGUUGUGCAGUCGUATT against XRN2,inactive: -0.312
3,CCCUAAAACUGUUGGAAGATT against NARG1L,inactive: 0.0121
4,GCAUGGACCUUGAAGAUCUTT against NALCN,inactive: -0.266
5,CAAGAGUCAGAAAUACUAATT against CNTNAP4,inactive: -0.414
6,GGAAAACUUGAGUUACGAUTT against HSPH1,inactive: -0.314
7,GGAAGACUGUUACUACAGUTT against FAS,inactive: -0.377
8,GAGAUACCGUGAAACAUUATT against HCK,inactive: -0.48
9,GGAAGAACGUGUAACCGAATT against RDX,inactive: 0.123
10,UGCACAAGCUGGACGGUUATT against ADAM11,inactive: 0.102
11,CCCUACCCUUUGGACUGAATT against SMOC2,inactive: -0.72
12,CCCAAAAUGUGGAUGCUUUTT against SIRT4,inactive: 0.623
13,CAGAGGAUUUUAGUCUAUATT against BRAF,inactive: 0.271
14,AGAUAUAUAAAUCAACGAATT against LSM3,active: -1.36
15,GCACCAUUGUUUGAAUUGUTT against NUDT21,inactive: 0.0851
16,ACACCAACCAUGCUGUUUATT against USP2,inactive: -0.0321
17,GAACCGAUCACAUAUCAAATT against PIGW,inactive: -0.242
18,GGAACAUUAUUGACAAUCUTT against IDH3B,inactive: -0.642
19,UGACCGUACAGGUACAGAATT against CIC,inactive: 0.756
20,AGAUCAAGGUGUACGAGAUTT against KIF26A,inactive: -0.428
21,CCAUGGAGGUACCAACUUUTT against GLB1L,inactive: -0.263
22,GGUGGAUCUAGUUUCGUAATT against ZFYVE16,inactive: 0.314

row,Sequence,median seed-adjusted z-score
1,GCGACAUCAUGACGAGUGATT against INPP5D,inactive: 0.0116
2,GGUCGAGUUCUACUACAAATT against IPO11,inactive: -0.245
3,GAACUGAGAAGGAACGCGATT against TNNT1,inactive: 0
4,CCUUUAUCAUCAACCUCUUTT against SLC11A1,inactive: -0.516
5,CUACAUAUGUGAGGACUGUTT against ZNF492,inactive: 0.0668
6,AGACCUGUAUCACAAGUGATT against SIGLEC8,inactive: 0.0069
7,GAUCCUAGCAAUAACUUCATT against MCCC1,inactive: 0.298
8,CGGCAACUGGAACAGACAATT against MYD88,inactive: -0.365
9,GGCACGAAAGGAUCAAGAATT against IL17RB,inactive: -0.464
10,GCCUAGAAUUUGUAUCCCATT against ATXN2,inactive: 0
11,GGAUCGUUUGGGAAGGUAUTT against PCDHB6,inactive: 0
12,GCAAGACGGUCAAAAAGGUTT against HTR1A,inactive: 0
13,CGUGAACAAUGCCUUCAAATT against ACOT11,inactive: 0.636
14,AGAUCGUCCUGACCUUUGATT against PRKACA,inactive: -0.137
15,GCAGUUCCAUGGUACACCATT against ASAH1,inactive: 0.421
16,CUGAGAAGAUAGAAGUUAATT against MRPL39,inactive: 0.355
17,GCCUGUAAGUUAUUAAAGATT against ARL4D,inactive: -0.523
18,CGCUGACAGGCUUACACUATT against DPYSL5,inactive: 0.0624
19,GCUCCGAUGAUGUAGUUGATT against NSUN5,inactive: 0.118
20,GCCUUGCUGGAUUGCCUAUTT against CARD18,inactive: 0.568
21,CCCUUAGACUCUAAGCCCATT against HSD17B14,inactive: 0.386
22,GAGAGAUUUUUGAGGUAUATT against IRAK3,inactive: 0.155

row,Sequence,median seed-adjusted z-score
1,GCCCGGACAGUUUCGACUATT against RASL10A,inactive: 0.151
2,UGAUUACCAGAUGACCAAATT against ADA,inactive: -0.242
3,GGCAAAAACUAUACUCAAATT against MOBKL1A,inactive: 0.549
4,CCGAGUUCGUCAACCACUATT against ACVRL1,inactive: -0.361
5,GCUCAACAGUCCCUAGUUATT against RSC1A1,inactive: 0.438
6,AGUUGAACGAUCUCAAGAATT against TRIM31,inactive: -0.167
7,GGAGGUUUCUCAAGCCUCATT against SLC28A1,inactive: 0.129
8,GAAAGAACUUGGAAGGCAATT against TNP2,inactive: -0.346
9,GCCGUGCUGAAGGCUCUAATT against KCNE3,active: -1.33
10,GCAAUGUGAGUGUCAUCUATT against MS4A8B,inactive: 0.207
11,GCACCGACUUUGAUACUGUTT against CABP7,inactive: -0.268
12,GGUACAACACUGUCCUGAATT against ALG12,inactive: -0.401
13,GGCCGAAUUUAUAAAGGAATT against CHI3L1,inactive: 0.145
14,GGACGACGACGAAUACAACTT against NKX6-2,inactive: 0.101
15,CCAGGAUGCACAUCCAGAATT against MXD3,inactive: 0.482
16,GAACUUCAAGGAACAUCAUTT against DHRS2,inactive: 0.35
17,GCUUUUAAGUCAUCCUCAATT against ZNF676,inactive: -0.499
18,AUACUGACUUCAUAGAAAATT against RGS2,inactive: 0.00236
19,GGGUGGAGACCUAAACUUUTT against ZNF524,inactive: 0.00173
20,AAACAAUGGUGGACGAACUTT against RAP2A,inactive: -0.727
21,CCCUGUGACCCGUUCCAUATT against SLC18A3,inactive: -0.392
22,CUUCGUUUCUGCGAACUAATT against CASP9,inactive: -0.0982

# A few values from above.
# median seed-adjusted z-score, AUACUGACUUCAUAGAAAATT against RGS2 reads inactive: 0.00236
# median seed-adjusted z-score, GCGUACACCUACAACAACATT against IGFALS reads inactive: 0.0888
# median seed-adjusted z-score, GGAAGAACGUGUAACCGAATT against RDX reads inactive: 0.123
# median seed-adjusted z-score, CAGCAAUGCUGAUCCGGAATT against ITGA8 reads inactive: -0.215
# median seed-adjusted z-score, GGAGGUUUCUCAAGCCUCATT against SLC28A1 reads inactive: 0.129

# The list goes on:

row,Sequence,median seed-adjusted z-score
1,CGAAUCAUGAGAACUAAUATT against MMP27,inactive: -0.084
2,GAUCUUGGAUGGAUUGCUATT against OCA2,inactive: 0.457
3,GAUACUAUCGGGAUCAUAATT against LAMA3,inactive: 0.534
4,GGGAUAUGAUAGAUCCUUATT against CPO,inactive: 0.0875
5,AGAGUUCCUCAGUUUAAUATT against ANP32B,inactive: 0
6,GAAAAUUACUGGAAGAGAATT against KCNJ3,inactive: -0.0229
7,CGAACCACGUGUACCAAGATT against CST3,inactive: -0.188
8,GCAUUGCUCCAAAAUACGATT against PRPS1L1,inactive: 0
9,CCUGAUUUCUUGUGAUACATT against DNAJC24,inactive: -0.0166
10,GCAGUUCAGGAGCUAGAAATT against PGPEP1,inactive: -0.0356
11,AAACAUGACUGGUACGUGUTT against ATP5J2,inactive: 0.00511
12,GAAGUACAGCUCAUGAAUATT against TESK2,inactive: 0
13,ACUUCAUAAUGGAGACCAATT against 1-Mar,inactive: 0
14,GGCUGAAACUCAAUAAGAATT against MSN,inactive: -0.736
15,CUGAUAAUGUGGGUCGAGATT against PLSCR2,inactive: 0
16,GCAGAGUCACUUUGACAAUTT against CHRNG,inactive: 0.221
17,GCCUUUCCAUUACCUAGCATT against KEL,inactive: 0
18,GUAUAGACUAUGAUCUAAATT against TRPC4,inactive: -0.272
19,AGGUGUACUUGAGCUGUGATT against IGFBP7,inactive: 0.116
20,CCAUCAUCCCUAAGCGAAUTT against REXO1,inactive: -0.748
